Source: article PMC6177200, “EpCAM ectodomain EpEX is a ligand of EGFR that counteracts EGF-mediated epithelial-mesenchymal transition through modulation of phospho-ERK1/2 in head and neck cancers” (PLoS Biology, 2018)
No constants are given. Whether binding was seen depends on the method and setting. For some of these results: In cells and extracts the contact can be indirect. Some binding calls cover weakened binding; strength is not graded here. For some of these results: Sequences can lack the tags named with a protein.

Experiments:
[1] = molecular target: T1, EpEX-Fc (extracellular domain of EpCAM fused to the constant region of human immunoglobulin 1) (human) (UniProt P16422); assay: pull-down; EpEX-Fc or Fc (50 μg) incubated with whole-cell lysates of FaDu and Cal27 overnight at 4 °C, immobilised on protein A agarose beads; washed in 25 mM tris, 150 mM NaCl, pH 7.2; immunoblot with Fc- and EGFR-specific antibodies; only the target purified
T1 sequence (chain, N-glycosylated): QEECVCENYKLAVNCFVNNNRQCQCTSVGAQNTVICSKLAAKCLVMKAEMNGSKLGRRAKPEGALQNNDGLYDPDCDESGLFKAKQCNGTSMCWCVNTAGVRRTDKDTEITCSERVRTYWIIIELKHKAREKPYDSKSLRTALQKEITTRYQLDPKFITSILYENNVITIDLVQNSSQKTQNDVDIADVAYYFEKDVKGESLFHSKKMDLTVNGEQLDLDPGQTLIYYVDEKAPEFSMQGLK

[2] = molecular target: T2, epithelial cell adhesion molecule (EpCAM), endogenous (human (endogenous in FaDu, Cal27, HCT8)) (UniProt P16422); assay: co-IP; bidirectional co-immunoprecipitation of endogenous proteins from precleared whole-cell lysates of FaDu, Cal27 and HCT8 cells; EGFR- or EpCAM-specific antibodies (10 μg) overnight at 4 °C, protein A agarose beads; washed in 25 mM tris, 150 mM NaCl, pH 7.2; immunoblot
T2 sequence: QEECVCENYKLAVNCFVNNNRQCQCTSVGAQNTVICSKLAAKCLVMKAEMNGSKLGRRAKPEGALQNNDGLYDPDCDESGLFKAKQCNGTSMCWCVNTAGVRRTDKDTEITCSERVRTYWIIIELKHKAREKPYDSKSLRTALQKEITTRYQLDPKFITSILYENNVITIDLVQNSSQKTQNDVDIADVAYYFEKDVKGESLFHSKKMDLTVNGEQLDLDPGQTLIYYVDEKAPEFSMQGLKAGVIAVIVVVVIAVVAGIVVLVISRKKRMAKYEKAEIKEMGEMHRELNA

[3] = molecular target: epidermal growth factor receptor (EGFR), endogenous full-length (human (endogenous in FaDu, Cal27, HCT8)) (UniProt P00533); assay: as above
[4] = molecular target: T3, EpEX shed into cell culture supernatants (soluble extracellular domain of EpCAM, endogenous) (human (endogenous in Cal27, Kyse30, FaDu, HCT8)), P16422; assay: native gel or EMSA; supernatants of Cal27, Kyse30, FaDu and HCT8 cells immunoprecipitated with EpEX-specific antibodies, separated under nonreducing native conditions against reducing conditions; EpEX detected with specific antibodies; conditions: remark: other sources report otherwise
T3 chain: T1 sequence (chain, N-glycosylated)

Q: What does the source list for “epidermal growth factor receptor (EGFR), endogenous full-length (from UniProt P00533 25-1210)”?
A: binding [1]: binds; binding [2]: binds

B1: epithelial cell adhesion molecule (EpCAM), endogenous (protein, UniProt P16422 24-314)
chain: T2 sequence
Q: For B1, which binding [3] is on record?
A: Its binding is “binds”.

B2: EpEX shed into cell culture supernatants (soluble extracellular domain of EpCAM, endogenous), P16422 24-265 (domain or fragment)
chain: T1 sequence (chain, N-glycosylated)
Q: How did the binding [4] turn out when B2 was run?
A: Its binding is “binds”.
